According to EP0738149B1 (priority 1994, dated 1995):
Where a name gives a salt, the structure may show the parent alone.

Test system: rats
Experiment: Maximal electroshock (MES) model in rats, p.o.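 Further: rat MES model gauging antiepileptic efficacy versus generalized and partial seizures after oral dosing.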
Format: in vivo
Details: PI=TD50/ED50, Table 15

Row | Structure (SMILES) | RATS MES PI
1 | C[C@@H]1Cc2ccccc2[C@H]1N [Example 39, (rac)-trans-2-Methyl-1-aminoindan.HCl] | >1
2 | C[C@H]1Cc2ccccc2[C@H]1N [Example 40, (rac)-cis-2-Methyl-1-aminoindan.HCl] | >1
